Results published in PMC12431657, “Discovery and mechanistic insights of dibenzoylmethane as a broad spectrum inhibitor of coronavirus” (PLOS Pathogens, 2025).
Where a name gives a salt, the structure may show the parent alone. Read-outs that look alike come from different tables or passages of the source. Among all 3,300 compounds or so, about 95 (3%) showed an effect of 50% or more. The list shows a part of the results.

Test system: HCoV-229E
Design: species or system Huh-7; HTS, protection from HCoV-229E induced cell death, luminescent cell viability (CellCounting-Lite 2.0), inhibition rate

| Compound | 229E Inhibition rate (24 h, 10 µM; inhibitor) | 229E Inhibition rate (24 h, 10 µM, inhibitor) |
| --- | --- | --- |
| C[C@]12CC[C@H](O)C[C@@H]1CC[C@@H]1[C@@H]2CC[C@]2(C)C(=O)CC[C@@H]12 [Epiandrosterone] | 29.3% | – |
| C[C@H]1CC[C@H]2[C@H](C)[C@@H]3CC[C@@H]4[C@@H](C[C@H]5[C@H]4C[C@@H](O)[C@H]4C[C@@H](O)CC[C@@]45C)[C@@H]3CN2C1 [Hupehenine] | 40.3% | – |
| CC(=O)C(=O)c1ccccc1 [1-Phenylpropane-1,2-dione] | 9.1% | – |
| COc1cc(CCN)ccc1O [3-Methoxytyramine (hydrochloride)] | – | 34.1% |
| C[C@]12CC[C@@H](O)C[C@@H]1CC[C@@H]1[C@@H]2[C@@H](O)C[C@]2(C)C(=O)CC[C@@H]12 [11β-Hydroxyandrosterone] | 12.4% | – |
| CC(=O)O[C@H]1[C@H]2O[C@]23[C@@H]2CC[C@@H]4C[C@@H](O)CC[C@]4(C)[C@H]2CC[C@]3(C)[C@H]1c1ccc(=O)oc1 [Cinobufagin] | 44.9 | – |
| CCN1C[C@]2(COC)[C@H](O)C[C@H](OC)[C@]34C1[C@H]([C@H](OC)[C@H]23)[C@@]1(OC(C)=O)C[C@H](OC)[C@@]2(O)C[C@@H]4[C@@H]1[C@H]2OC(=O)c1ccc(OC)cc1 [Yunaconitine] | 11.5% | – |
| C=C(C)[C@@H]1[C@H]2OC(=O)[C@@H]1[C@]1(O)C[C@H]3O[C@]34C(=O)O[C@H]2[C@]14C [Picrotoxinin] | 0 | – |
| COCc1c(CO)cnc(C)c1O [4'-O-Methylpyridoxine] | 9% | – |
| CCN1C[C@@]2(COC)[C@H]3[C@@H](OC)[C@H]4[C@@H]1[C@]3([C@@H](OC)C[C@H]2OC(C)=O)[C@@H]1C[C@@]2(O)[C@H](OC(=O)c3ccccc3)[C@@H]1[C@]4(OC(C)=O)[C@@H](O)[C@@H]2OC [Flaconitine] | 16.9% | – |
| O=C(O)COc1ccccc1 [Phenoxyacetic acid] | 11.2% | – |
| C=C[C@@]12CN(C)[C@H]3C[C@]14C(=Nc1ccccc14)[C@@H]1C[C@@H]2[C@@H]3CO1 [Koumine] | 31.1% | – |
| CC(C)C[C@H](NP(=O)(O)O[C@@H]1O[C@@H](C)[C@H](O)[C@@H](O)[C@H]1O)C(=O)N[C@@H](Cc1c[nH]c2ccccc12)C(=O)O [Phosphoramidon (Disodium)] | 13% | – |
| C[C@@H](NC(=O)[C@@H](N)Cc1ccc(O)cc1)C(=O)N[C@@H](Cc1ccccc1)C(=O)NCC(=O)N[C@@H](Cc1ccc(O)cc1)C(=O)N1CCC[C@H]1C(=O)N[C@@H](CO)C(N)=O [Dermorphin] | 14.3 | – |
| CCN(CC)N=O [N-Nitrosodiethylamine] | 12.9% | – |
| COc1cc2c3c(c1OC)-c1ccccc1C[C@H]3[N+](C)(C)CC2 [N-Methylnuciferine] | 9.7% | – |
| C=C1[C@@H]2CC[C@H]3[C@]4(C)C[C@H](O[C@H]5O[C@H](CO)[C@@H](OS(=O)(=O)O)[C@H](OS(=O)(=O)O)[C@H]5OC(=O)CC(C)C)C[C@@H](C(=O)O)[C@H]4CC[C@]3(C2)[C@H]1O [Atractyloside (potassium salt)] | 24.3% | – |
| CC(C)=CCC[C@](C)(O)[C@H]1CC[C@]2(C)[C@@H]1[C@H](O)C[C@@H]1[C@@]3(C)CC[C@H](O)C(C)(C)[C@@H]3[C@@H](O[C@@H]3O[C@H](CO)[C@@H](O)[C@H](O)[C@H]3O)C[C@]12C [Ginsenoside Rh1] | 24.5% | – |
| COc1ccc(C(=O)O[C@H]2CC[C@@]3(C)[C@@H]4CC[C@H]5[C@]6(O)C[C@H](O)[C@@]7(O)[C@@H](CN8C[C@@H](C)CC[C@H]8[C@@]7(C)O)[C@]6(O)C[C@@]53O[C@]24O)cc1OC [Veratridine] | 30.2% | – |

| Compound | 229E Inhibition rate (24 h, 10 µM; inhibitor) | 229E Inhibition rate (24 h, 10 µM, inhibitor) |
| --- | --- | --- |
| COc1ccc(C=O)cc1O [Isovanillin] | 0% | – |
| CC(=O)/C=C/c1ccccc1 [trans-Benzylideneacetone] | – | 21.8% |
| O=c1cccc2n1CC1CC2CN2CCCCC12 (centres unmarked) [Thermopsine] | 23.6% | – |
| C/C=C(\C)C(=O)N[C@@H](c1ccccc1)[C@@H](O)C(=O)O[C@H]1C[C@@]2(O)[C@@H](OC(=O)c3ccccc3)[C@@H]3[C@]4(OC(C)=O)CO[C@@H]4C[C@H](O)[C@@]3(C)C(=O)[C@H](OC(C)=O)C(=C1C)C2(C)C [Cephalomannine] | 17.2% | – |
| CN(C)NC(=O)CCC(=O)O [Daminozide] | 12.3% | – |
| C[C@H]1O[C@@H](O[C@H]2CC[C@@]3(C)[C@H](CC[C@@H]4[C@@H]3C[C@@H](O)[C@]3(C)[C@@H](C5=CC(=O)OC5)CC[C@]43O)C2)C[C@H](O)[C@@H]1O[C@H]1C[C@H](O)[C@H](O[C@H]2C[C@H](O)[C@H](O[C@@H]3O[C@H](CO)[C@@H](O)[C@H](O)[C@H]3O)[C@@H](C)O2)[C@@H](C)O1 [Deslanoside] | 55.1 | – |
| C=CCSC [Allyl methyl sulfide] | 15.5 | – |
| CC1(C)O[C@@H]1COc1c2occc2cc2ccc(=O)oc12 [Heraclenin] | 49.2% | – |
| O=C(/C=C/c1ccc(O)c(O)c1)OC1[C@H](O)CC(OC(=O)/C=C/c2ccc(O)c(O)c2)(C(=O)O)C[C@H]1O (some centres unmarked) [1,4-Dicaffeoylquinic acid] | 0% | – |
| OCC(Cl)(Cl)Cl [2,2,2-Trichloroethanol] | 10.2% | – |
| CC(C)=CC[C@@H](OC(=O)CC(C)(C)O)C1=CC(=O)c2c(O)ccc(O)c2C1=O [β-Hydroxyisovalerylshikonin] | 7.4% | – |
| CN1CC[C@]23C(=O)C[C@H]4C(=CCO[C@H]5CC(=O)N(c6c(O)cccc62)[C@H]3[C@H]54)C1 [Vomicine] | 11.7% | – |
| CC(C(=O)O)C(=O)O [Methylmalonic acid] | 15.2 | – |
| O=C(O)c1ccc(=O)[nH]c1 [6-Hydroxynicotinic acid] | 13.6% | – |
| c1ccc2c(c1)ccc1c3ccccc3ccc21 [Chrysene] | 7 | – |
| CCc1ccc(O)c2cc3c(nc12)-c1cc2c(c(=O)n1C3)COC(=O)[C@]2(O)CC [12-Ethyl-9-hydroxycamptothecin] | 3.6% | – |
| COC1=C[C@]23CCCN2CCc2cc4c(cc2[C@@H]3[C@@H]1O)OCO4 [Cephalotaxine] | 17.3% | – |
| C[C@@H]1C(=O)O[C@H]2[C@H](O)[C@@]34O[C@@H]5OC(=O)[C@H](O)[C@@]56[C@H](C(C)(C)C)[C@H](O)C(OC3=O)[C@]64[C@@]12O (some centres unmarked) [Ginkgolide C] | 18.8% | – |
| CCCCCCCCC(=O)NCc1ccc(O)c(OC)c1 [Nonivamide] | 37.1 | – |

| Compound | 229E Inhibition rate (24 h, 10 µM; inhibitor) | 229E Inhibition rate (24 h, 10 µM, inhibitor) |
| --- | --- | --- |
| COc1cc2occc2c2oc(=O)ccc12 [Isobergapten] | 15.7% | – |
| C/C=C(\C)C(=O)O[C@@H]1C[C@H](O)[C@]23CO[C@H](C(=O)OC)[C@H]2[C@](C)([C@]24O[C@@]2(C)[C@H]2C[C@@H]4O[C@@H]4OC=C[C@@]42O)[C@H](O)[C@@H]2OC[C@@]1(C(=O)OC)[C@H]23 [Azadirachtin B] | 25% | – |
| Cc1c([C@H](C)[C@@H]2NC[C@@H](C)C[C@H]2O)ccc2c1C[C@H]1[C@H]2CC=C2C[C@@H](O[C@@H]3O[C@H](CO)[C@@H](O)[C@H](O)[C@H]3O)CC[C@@]21C [Veratrosine] | 0% | – |
| C[C@]12CC[C@@H](O)C[C@H]1CC[C@@H]1[C@@H]2CC[C@]2(C)C(=O)CC[C@@H]12 [Etiocholanolone] | 13.1% | – |
| C[C@]12CC[C@H](O)C[C@H]1CC[C@@H]1[C@@H]2C(=O)[C@H](O)[C@]2(C)[C@@H](c3ccc(=O)oc3)CC[C@]12O [Pseudobufarenogin] | 45.8% | – |
| NC(=O)[C@H](Cc1ccccc1)NC(=O)[C@H](Cc1c[nH]c2ccccc12)NC(=O)[C@@H]1CCCN1C(=O)[C@@H](N)Cc1ccc(O)cc1 [Endomorphin 1] | 9.1% | – |
| CC1=CC(=O)[C@@H](O)[C@]2(C)[C@H]3[C@@H](O)[C@H](O)[C@]4(CO)OC[C@@]35[C@@H](C[C@@H]12)OC(=O)[C@H](O)[C@]54O [Yadanziolide A] | 15.8% | – |
| COc1c(O)cc2c3c1-c1ccccc1C[C@H]3N(C)CC2 [O-Nornuciferine] | 18.9% | – |
| COC1=CC(=O)O[C@@H](/C=C/c2ccccc2)C1 [(+)-Kavain] | – | 9.8% |
| COc1cc(OC)c(OC)cc1C=O [Asaraldehyde] | 16.7% | – |
| C=Cc1cc(O)cc2ccc3c(C)c(O)ccc3c12 [Dehydroeffusol] | 44.2% | – |
| COC1=CC(=O)O[C@@H](/C=C/c2ccccc2)C1 [Kavain] | – | 39.7% |
| COC[C@]12CN(C)C3[C@@H]4[C@H](OC)[C@H]1[C@@]3([C@@H](OC)C[C@H]2O)[C@@H]1C[C@@]2(O)[C@H](OC(=O)c3ccccc3)[C@@H]1[C@]4(O)[C@@H](O)[C@@H]2OC [Benzoylmesaconine] | 10.7% | – |
| CC(=O)/C=C/c1ccccc1 [Benzylideneacetone] | – | 20.1% |
| CC(C)[C@@H]1[C@H]2OC(=O)[C@@H]1[C@@H]1CC[C@@H]3CN(C)[C@H]2[C@@]31C [Dendrobine] | 0% | – |
| CC(C)(C)[C@]1(O)C[C@@H]2OC(=O)C[C@@]23C(=O)O[C@@H]2OC(=O)[C@H](O)[C@]213 [Bilobalide] | 54.8% | – |
| C[C@H](O)c1ccccc1 [(S)-(-)-Phenylethanol] | 8.9 | – |
| COc1cc2c(cc1O)C[C@@H]1NCCc3cc(O)c(OC)c-2c31 [Laurolitsine (hydrochloride)] | 13.8% | – |

Part of the list above, comma-delimited:
Compound,"229E Inhibition rate (24 h, 10 µM; inhibitor)","229E Inhibition rate (24 h, 10 µM, inhibitor)"
CN(C)NC(=O)CCC(=O)O [Daminozide],12.3%,–
COc1cc2c(cc1O)C[C@@H]1NCCc3cc(O)c(OC)c-2c31 [Laurolitsine (hydrochloride)],13.8%,–
